Data: PubChem BioAssay AID1259354 (Paczesny and Yang Labs, IUPUI and University of Michigan, 2018)
Several values for one entry are separate records, joined by “and”; a condition that tells them apart may be missing. Equal values may be shown once. The campaign covered roughly 78,000 compounds. About 1,800 (2.3%) were called active. Inconclusive means that the source gave no clear call. Such entries were picked first, then a sample of the others. No stated cut-off is given here; in the data, active means inhibition above about 30%; inconclusive means mostly about 10% to 28%; inactive means weaker than that.

The chains behind the UniProt entries cited, without tags or fusion partners. Where a name states a change or a piece, a line headed by the entry shows the natural chain unless it says otherwise.
UniProt Q01638: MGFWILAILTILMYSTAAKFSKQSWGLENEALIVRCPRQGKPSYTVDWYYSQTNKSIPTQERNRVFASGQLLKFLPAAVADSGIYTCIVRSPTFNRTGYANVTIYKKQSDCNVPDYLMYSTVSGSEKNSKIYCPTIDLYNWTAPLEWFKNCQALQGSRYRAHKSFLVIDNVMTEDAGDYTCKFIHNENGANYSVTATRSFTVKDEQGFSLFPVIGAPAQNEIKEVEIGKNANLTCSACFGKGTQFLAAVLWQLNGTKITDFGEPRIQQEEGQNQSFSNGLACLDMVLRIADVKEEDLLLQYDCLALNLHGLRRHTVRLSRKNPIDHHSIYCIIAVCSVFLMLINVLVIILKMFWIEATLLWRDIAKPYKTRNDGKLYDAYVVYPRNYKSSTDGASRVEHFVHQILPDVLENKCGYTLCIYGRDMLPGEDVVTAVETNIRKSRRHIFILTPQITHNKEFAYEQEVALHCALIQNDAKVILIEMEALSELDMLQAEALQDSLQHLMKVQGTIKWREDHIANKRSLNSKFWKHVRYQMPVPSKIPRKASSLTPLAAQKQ

molecular target: Interleukin-1 receptor-like 1 (Homo sapiens) (UniProt Q01638); test: blocks human ST2 binding to IL-33, primary screen, biochemical, AlphaLISA (AID 1259354); conditions: AlphaLISA ST2-Fc/biotin-IL-33 interaction, 1 h; at 17 µM, stronger effect = higher value

| SMILES | inhibition |
| --- | --- |
| CC(C)(C)c1ccc(S(=O)(=O)Nc2ccc3oc(=O)sc3c2)cc1 | inactive |
| O=[N+]([O-])c1ccccc1-c1ccccc1Br | inconclusive: 23% |
| O=C(CC1Sc2ccc(C(F)(F)F)cc2NC1=O)Nc1ccc(Cl)cc1 (stereo not given) | inactive |
| CCOc1ccc(OC(=O)c2sc3ncn(CC)c(=O)c3c2C)cc1 | inconclusive: 10% |
| Cc1ccccc1Cn1cc(NC(=O)c2noc3c2CCCC3)cn1 | inconclusive: 15% |
| N[C@H]1[C@H](O)[C@@H](N2CCC(Cc3ccccc3)CC2)[C@@H]2OC[C@H]1O2 | inconclusive: 11% |
| COc1cccc(C2=NN(C(=O)c3ccccc3Cl)C(O)(C(F)(F)F)C2)c1 (stereo not given) | inactive |
| C=CCn1c(CNC(C)=O)nc2ccccc21 | inconclusive: 11% |
| NCCC1CCCCCC(=O)N1 (stereo not given) | inconclusive: 16% |
| CCOc1ccc(CN2CCN(c3ccc([N+](=O)[O-])cc3)CC2)cc1 | inconclusive: 23% |
| CCOc1ccccc1N=Cc1c(O)n(-c2ccccc2OC)c(=O)c2ccccc12 | inconclusive: 19% |
| CCc1ccc(C2CC(=O)N3CN(Cc4ccccc4)CSC3=C2C#N)cc1 (stereo not given) | inconclusive: 18% |
| COCCCNC(=O)CN1C(=O)/C(=C/c2ccccc2F)Sc2ccccc21 | inconclusive: 15% |
| O=C(NCCCN1CCCCC1)c1ccc2c(c1)NC(=O)C(N1CCOCC1)S2 (stereo not given) | inconclusive: 11% |
| COc1cccc(N(CC(=O)Nc2cccc(C(C)=O)c2)S(=O)(=O)c2ccccc2)c1 | inconclusive: 12% |
| O=C(NC1CCCC1)c1nn2c(c1Cl)NC(c1ccco1)CC2C(F)(F)F (stereo not given) | inactive |
| C=C1CC2C3(C)C=CC(=O)OC(C)(C)C3CC(OC(C)=O)C2(C)C2C(=O)OC(C)C(=O)C12C (stereo not given) | inconclusive: 12% |
| COc1ccc(N=Cc2c(O)n(-c3ccccc3OC)c(=O)c3ccccc23)c(OC)c1 | active: 31% |
| COc1ccc(-c2nc(N3CCCC3)nc3nn4c(C)c(CCC(=O)O)c(C)nc4c23)cc1 | inactive |
| Cc1cccc(-c2nc3ccccc3c(=O)n2CC(=O)O)c1 | inconclusive: 11% |
| COc1ccc(N2C(=O)C(=O)C(=C(O)c3ccc(Cl)cc3)C2c2ccccc2F)cc1 (stereo not given) | inconclusive: 12% |
| O=C(c1ccccc1)N1C[C@@H]2C[C@H](C1)c1ccc(-c3ccccc3CN3CCOCC3)c(=O)n1C2 | inactive |
| Cc1ccc(-n2cc(CN3CCN(c4cnccn4)CC3)c(-c3cccc(C)c3)n2)cc1 | inactive |

| SMILES | inhibition |
| --- | --- |
| CCOc1ccc(CCNC(=O)c2cc3cc4ccc(OC)cc4nc3o2)cc1OCC | inconclusive: 19% |
| O=C(C(Cc1ccccc1)NS(=O)(=O)c1cccs1)N1CCN(c2ccccc2F)CC1 (stereo not given) | inconclusive: 14% |
| CCc1ccc(Nc2ncnc3c2cnn3-c2ccccc2)cc1 | inactive |
| COc1ccc(C(=O)N2C[C@@H]3C[C@H](C2)c2c(-c4ccc5ccccc5c4)ccc(=O)n2C3)cc1 | inconclusive: 15% |
| CCC(CC)C(=O)Nc1ccc(Nc2nc(C)cc(Nc3ccc(OC)cc3)n2)cc1 | active: 39% |
| CCc1ccc(-c2c(-c3ccccc3)ncn2CCCO)o1 | inconclusive: 14% |
| CCCCC(=O)NC(c1ccccc1OC)c1cc([N+](=O)[O-])c2cccnc2c1O (stereo not given) | inconclusive: 17% |
| COc1cccc(-n2c(=O)[nH]cc(C(=O)N3CCc4ccccc43)c2=O)c1 | inactive |
| O=C(NC1CC1)C1CCCN(C2CCN(c3noc(-c4ccccc4)n3)CC2)C1 (stereo not given) | inconclusive: 13% |
| CC(=O)N1c2ccc(N=Cc3ccc([N+](=O)[O-])cc3)cc2CC1C (stereo not given) | inconclusive: 14% |
| CO[C@H]1[C@H](NC(=O)Cc2ccccc2)c2ccccc2C12CCN(C(=O)c1ccc3cc[nH]c3c1)CC2 | inconclusive: 11% |
| CN1CCN([C@@H]2[C@H](O)[C@H](CO)O[C@@H]2CN(Cc2ccc(F)cc2)Cc2ccc(F)cc2)CC1 | inconclusive: 11% |
| CC1CCCCN1C(=O)Cn1c(=O)n(-c2ccc(F)cc2F)c(=O)c2sccc21 (stereo not given) | inconclusive: 12% |
| CSc1cccc(CNC(=O)Cc2csc(C(C)=O)c2)c1 | inconclusive: 21% |
| CCCCC1(C)OC(=O)C(=Cc2ccc(OC)c(I)c2)C(=O)O1 (stereo not given) | inactive |
| Cc1ccc(CNC(=O)CCCn2c(=O)c3sccc3n(CC(N)=O)c2=O)cc1 | inconclusive: 11% |
| CC(=O)c1ccc(NS(=O)(=O)c2ccc(Oc3ccc([N+](=O)[O-])cc3)cc2)cc1 | inconclusive: 13% |
| C=CCN1C(=O)c2ccccc2Sc2ccc(C(=O)NC3CCCC3)cc21 | inconclusive: 13% |
| CC(=O)NCc1nc2ccccc2n1CC(C)C | inconclusive: 10% |
| COC(=O)[C@@H]1Cc2ncn(C(C)C)c2CN1C(=O)C1CCCCC1 | inconclusive: 12% |
| O=C(CCCOc1ccccc1)Nc1nnc(C2CCCCC2)s1 | inactive |
| CN1[C@@H](CCC(=O)Nc2ccccc2)CNC(=O)[C@@H]2[C@H]1CCN2Cc1cccc(OC(F)(F)F)c1 | inconclusive: 16% |
| CC1=C(C(=O)Nc2cccnc2)C(c2cccc(O)c2)n2nc(SCc3ccccc3)nc2N1 (stereo not given) | inconclusive: 24% |

| SMILES | inhibition |
| --- | --- |
| COc1ccc(C(=O)N2C[C@@H]3C[C@H](C2)c2ccc(NC(=O)Cc4ccccc4)c(=O)n2C3)cc1 | inconclusive: 16% |
| O=C(c1ccc2c(c1)OCO2)C1CCCN(C(=O)c2ccccc2-c2ncc[nH]2)C1 (stereo not given) | inconclusive: 17% |
| COc1ccccc1OC1CCN(C2CCN(c3nc(C)c4cc(C)c(C)cc4n3)CC2)CC1 | inconclusive: 10% |
| Cc1ccc(-c2ccnc(N(C)CC3CCCO3)n2)c(C)n1 (stereo not given) | inconclusive: 17% |
| COC(=O)c1cc2c(s1)CN(Cc1ccc(Cl)cc1)C2 | inconclusive: 20% |
| CCn1cc(C(=O)N2CCCC(C)C2)c2cc(OC)c(OC)cc2c1=O (stereo not given) | inactive |
| Oc1cccc2ccc(/C=C/c3cc4c(cc3Cl)OCO4)nc12 | active: 32% |
| NC(=O)CN1CCCC(N2CCN(c3ccccc3F)CC2)C1 (stereo not given) | inconclusive: 20% |
| CCC(Nc1nc(-c2ccccc2)nc2ccccc12)C(=O)O (stereo not given) | inconclusive: 11% |
| O=C(c1ccc2nc3ccccc3c(=O)n2c1)N1CCN(c2ccccc2F)CC1 | inconclusive: 10% |
| Cc1ccc(N(C(=O)Cc2ccc(F)cc2)C2C=CS(=O)(=O)C2)cc1C (stereo not given) | inactive |
| CC1(C)C(=O)OC(c2ccc(F)cc2)C(C)(C)C1=O (stereo not given) | inactive |
| O=C(O)C(NS(=O)(=O)c1ccc(Br)cc1)c1ccccc1 (stereo not given) | inconclusive: 10% |
| CCC(C)OC(=O)C1=C(C)NC2=C(C(=O)C(C(=O)OC)C(C)C2)C1c1c(F)cccc1Cl (stereo not given) | inactive |
| O=C(c1cccc(Br)c1)N1CCCCC1 | inactive |
| COc1cc(OC)cc(C(=O)Nc2ccc(Nc3nc(C)cc(Nc4ccccc4)n3)cc2)c1 | inconclusive: 16% |
| CC1=NN(c2ccccc2)C(=O)/C1=C\N(O)c1ccccc1 | inconclusive: 16% |
| Nc1ccc(-c2nc3ccc(-c4nc5ccc(N)cc5[nH]4)cc3[nH]2)cc1 | active: 35% and inconclusive: 26% |
| C=CCc1ccc(OCCOc2cc(C=O)ccc2OC)c(OC)c1 | inactive |
| CC1=C[C@@H](CNC(=O)c2ccco2)[C@H](C(C)C)C[C@H]1CC(=O)NCc1cccnc1 | inconclusive: 12% |
| O=C(O)C1CCCN(c2ccc(C(F)(F)F)cc2[N+](=O)[O-])C1 (stereo not given) | inconclusive: 12% |
| Cc1nccn1CCCn1ccnc1-c1cc(F)cc(Cl)c1 | inconclusive: 13% |
| Cc1nn(Cc2ccccc2)c(C)c1NC(=O)c1cc(-c2ccc(F)cc2)on1 | inactive |

| SMILES | inhibition |
| --- | --- |
| O=[N+]([O-])c1ccc(O)c(CN2CCN(C/C=C/c3ccccc3)CC2)c1 | inconclusive: 24% |
| COc1ccccc1C(=O)Nc1ccc([N+](=O)[O-])cc1Cl | inactive |
| CCCCN(CC)C(=O)c1cc2cc3ccc(Cl)cc3nc2o1 | inconclusive: 16% |
| CC(=O)N1N=C(c2ccc(C)c(Cl)c2)OC12CCCC2 | inactive |
| COC(=O)c1c(C)oc2ccc(OCc3ccccc3)cc12 | inactive |
| COC(=O)C1C(=O)C2=C(CC1C)NC(C)=C(C(=O)OC(C)C)C2c1ccc(OC)cc1OC (stereo not given) | inactive |
| CC(C)c1ccc(C(=O)Nc2ccc(S(N)(=O)=O)cc2)cc1 | inconclusive: 19% |
| OCCc1cc(CC2(NCc3cccc4c3OCO4)COC2)no1 | inconclusive: 18% |
| Cc1nn(C)cc1-c1ccnc(N2CCCN(c3ccc(F)cc3)CC2)n1 | inconclusive: 16% |
| Cc1ccc(C(=O)N2CCN=C2SCc2cccnc2)cc1C | inconclusive: 10% |
| O=C(c1ccc2c(c1)C1C=CCC1C(c1cccc([N+](=O)[O-])c1)N2)N1CCCCC1 (stereo not given) | active: 38% |
| Cn1c(O)c(C2=c3cc(Br)ccc3=NC2=O)sc1=Nc1ccc(Cl)cc1 | inconclusive: 16% |
| COc1ccc(C(=O)Nc2ccc3oc(-c4ccccc4)nc3c2)cc1[N+](=O)[O-] | inconclusive: 21% |
| Cc1cc(O)c(C=Nc2ccccc2O)c(C)c1Cl | inactive |
| O=[N+]([O-])c1ccc(OCCOCCO)cc1 | inactive |
| CC1=C(C(N)=O)C(c2ccc([N+](=O)[O-])cc2)n2nc(SCc3ccccc3)nc2N1 (stereo not given) | inconclusive: 11% |
| CCc1cn[nH]c1C1CCCN(C(=O)C(=O)CC(C)C)C1 (stereo not given) | inconclusive: 15% |
| COc1ccc(N2C(=O)C3C4C=CC(C4)C3(C)C2=O)cc1 (stereo not given) | inconclusive: 19% |
| Cc1cc(F)ccc1S(=O)(=O)N1CCC2(CCCNC2)C1 (stereo not given) | inconclusive: 17% |
| Cc1cccc(N(S(=O)(=O)c2ccc(F)cc2)S(=O)(=O)c2ccc(F)cc2)n1 | inconclusive: 10% |
| CCNC(=O)C1CCN(Cc2nc(-c3cccc(Cl)c3)oc2C)C1 (stereo not given) | inconclusive: 11% |

Part of the list above, field by field:
CCn1cc(C(=O)N2CCCC(C)C2)c2cc(OC)c(OC)cc2c1=O (stereo not given)
  inhibition: inactive
Oc1cccc2ccc(/C=C/c3cc4c(cc3Cl)OCO4)nc12
  inhibition: active: 32%
NC(=O)CN1CCCC(N2CCN(c3ccccc3F)CC2)C1 (stereo not given)
  inhibition: inconclusive: 20%
CCC(Nc1nc(-c2ccccc2)nc2ccccc12)C(=O)O (stereo not given)
  inhibition: inconclusive: 11%
